This is an account of results in PubChem BioAssay AID1508600 (Functional Genomics Laboratory (NCATS/FGL), 2020).

Out of some 53,000 sequences screened, about 3,700 (7%) were called active.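 How the source made its calls: active means gene knockdowns whose robust z-score for IL-1 alpha signal is at least 2 or at most -2, so actives lie on both sides; inactive means the rest.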 This is one part of the list.

A short description of the assay: Components of the Cytosolic LPS Sensing Pathway: Gene Identification via Genome-wide siRNA Screen.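 Further: robust z of the log signal after scaling to non-targeting control siRNA wells of the plate.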 As to conditions: RAW264.7 macrophages, IL-1a HTRF, actives lie on both sides, screened at 100 nM (by protocol), cells primed 5 h with Pam3CSK4 first. An outline of the steps:
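RAW264.7 mouse macrophages reverse-transfected with single siRNAs (100 nM final) for 48h, primed with Pam3CSK4 for 5 hours, then transfected with LipidA for 24 hour. Supernatant IL-1a read by HTRF; values normalized to negative-control median, log-transformed robust z-scores.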
Regarding GGUAGAUCCAGUGUUUACATT against Glt1d1, the z-score was inactive: -0.17.

Consider ACAGAUUUUACUUUAACAUTT against Olfr1228, for which the z-score was inactive: 1.54.

For GCAUGUCCCAUCAAUGGUCTT against Akr1d1, the z-score is inactive: -0.0568.

Turning to GGAUUUGAUGAUCUUUCCUTT against Pstk, the z-score is inactive: 0.952.

Regarding GGAACUUCAUUGAACUAUGTT against Trmt2b, the z-score is inactive: -0.363.

Regarding GGAGGAGUUCUGCAUCUACTT against Syngr1, the z-score was inactive: -1.04.

Turning to GGUAUUCUAUAAGCUCCUUTT against Dennd1a, the z-score was active: -2.07.

As for GGAGAAGAAAAAUCUCUCCTT against Ccdc28a, the z-score is inactive: 0.578.

Take GCGUAGACAAAAAACUAUCTT against F13b: the z-score was inactive: 1.02.

As for GGAACUUUGUGAAGGAAGCTT against Cog8, the z-score is inactive: 0.372.

Regarding CCUUACGUAACUGAACAAATT against Tra2a, the z-score was inactive: 0.0768.

In the case of CCUGUGUCUAUAUUCUUAGTT against Tep1, the z-score is inactive: -0.411.

With CCAGUAAACCGAGACCAUUTT against Nsfl1c, the z-score is active: 2.02.

Regarding GGUAUAUGUCACCAUACUCTT against Phxr2, the z-score is inactive: -1.99.

Regarding CGCAGUGCACAUCAAGGGATT against Lfng, the z-score was inactive: 0.829.

As for GGAAGUGAUGCAUAAAUACTT against Ppef2, the z-score is inactive: -1.26.

Turning to CGGAAUCAUUCGGAAUGAGTT against Capza3, the z-score was inactive: -1.01.

Consider GGAUCAUCAAGAUAUAGAUTT against Trpm7, for which the z-score is active: 2.44.

As for “GGGCUUUAUUCAUCCACUCTT against 1700067P10Rik”, the z-score was inactive: 1.52.

Take GCAUAGAUUGAUGGCUAAUTT against Chd8: the z-score was inactive: 1.18.

Turning to GAAACUACACCUCAGAGUGTT against Trrap, the z-score was inactive: -1.36.

As for GGCUGUUUGCGUGAUAGACTT against Lrwd1, the z-score was inactive: -1.51.

For the sequence CGGAUUCAUCAGUUUGGUATT against Cdc7, the z-score is inactive: 0.274.

For the sequence GGAAAAGAAAGACUUUUGCTT against Fcho2, the z-score is inactive: 0.102.

On to CCAGUUGUCUAGACCUGCATT against Ptbp1, for which the z-score is inactive: -0.301.

CGAAUACUGGACCAUGAUUTT against S100a16: the z-score is inactive: -0.35.

GGAGAUAUCACACAAAUCCTT against Gabrg1: the z-score was inactive: -0.32.

In the case of GGGAAGAUCUUCAGGAAAATT against Cbr3, the z-score was inactive: 1.1.

For CCUUCAUCCAAGGACGAUGTT against Olfr781, the z-score is inactive: -0.786.

Take GGUAAAGAGACACAAGGUGTT against Gjb1: the z-score is inactive: 1.04.

With GGCAUCUUUUGGGCAGCAGTT against Scrg1, the z-score was inactive: -0.429.

As for GGAUAAUUCAGACAACAAUTT against Fus, the z-score was inactive: -0.236.

Regarding GGGACAAUACCAAUUUCUCTT against Car15, the z-score is inactive: -0.209.

Consider GGUAUCAUAUGAUAAAGCATT against Npy5r, for which the z-score is inactive: -0.978.

Take GGACAGAGGCCACAGAGAATT against Hrc: the z-score is inactive: -1.45.

Consider GGAGGAUGAGCAAGACAACTT against Lbh, for which the z-score is inactive: -0.406.

For the sequence CGAUGACGGGAAAUAAUUUTT against Snx4, the z-score was inactive: -0.663.

For GGCCAGUUGCUCAAAUUAUTT against Olfr460, the z-score is inactive: 0.094.

As to GCCCUUUGACAAUUUGUUUTT against Stra6l, the z-score was inactive: -0.661.

Turning to GCGUGUUCGCUUCUUGCUATT against Trub2, the z-score is inactive: -0.614.

In the case of GGAUGCUAGACUAAUACUATT against Slc25a32, the z-score is inactive: 1.3.

Turning to GGAUGUUAACAUUGAGCAATT against Asb11, the z-score was inactive: -0.0828.

Regarding GCCACUGGUUCCAAUCGUCTT against Ncs1, the z-score is inactive: -0.354.

As for GCAACCUCUUCAGCUUACATT against Fjx1, the z-score was inactive: 0.195.

As for CCAUACCCACUUACUGAAGTT against Galntl6, the z-score is inactive: -0.474.

Regarding GGAAGACUUGAAUUCUCUGTT against Tex101, the z-score was inactive: -1.95.

On to CGAUAUGAAGCGAAAUAUCTT against Pmpca, for which the z-score was inactive: 0.528.

With GGCAAAGCAACAAUAUCUATT against Cct7, the z-score was inactive: -0.809.

As to GGACAAUGUGGUGCUGUCCTT against Slc34a3, the z-score is inactive: 0.492.

GGUGCAUUAUCUUGGUUCGTT against Hmga2: the z-score is active: -2.46.

Consider GAUACCAAGCUAAAAGAUCTT against Ear10, for which the z-score is inactive: 0.0579.

For the sequence GGACUUGAGAAAAAUGUUATT against Gatad1, the z-score is inactive: -1.21.

GGUAGUAGUAAGCCAUAAATT against Exoc8: the z-score was inactive: 0.736.

Consider GGCAACAUUGAUCAAGUGGTT against Ecsit, for which the z-score was inactive: 1.41.

As for GGCCUGCCGGAGAUAAAGATT against Tex43, the z-score was inactive: -0.759.

Take CCACCUUUACGAUAAUGAUTT against Larp1b: the z-score was inactive: -0.879.

As to UGCAAAGGGAAUUGUGCUGTT against Rps23, the z-score is inactive: -0.154.

For GCCGACAACACAAAAUUAUTT against Vps26b, the z-score was inactive: 0.4.

Consider CCUAAAUUUCCAACAGUCCTT against Tmem81, for which the z-score is active: 2.05.

In the case of GCAACAGUGCUUUAGAUUCTT against Gpr141, the z-score is inactive: -0.531.

In the case of CGGACACAUGAUUGUCUUCTT against Npas1, the z-score is inactive: 1.25.

Turning to CCAGGAUUUUCUUACACGGTT against Cyct, the z-score was inactive: -0.469.

GGUGUCACCUUGUUACAACTT against Arrdc4: the z-score was inactive: 0.579.

As for CCAACUGUAGAUGUAUAUATT against Pmp22, the z-score is inactive: 0.654.

In the case of CCAGAUUUAGGUUUCUUUCTT against Chmp5, the z-score is inactive: -0.391.

GCCGGAUGCAGGUUAUUAUTT against Wdr33: the z-score was inactive: 1.46.

Regarding GGUGUCACCACUUAUGUUGTT against Cyp2b9, the z-score is inactive: -0.582.

For the sequence GGAUUUAGAAGUGUUAAAGTT against Pdlim1, the z-score was inactive: 0.581.

In the case of GGAUCUGGAUACUUUUCCATT against Arhgap22, the z-score was active: -2.09.

For CCUGCAUCAGGACUAUUGGTT against Fndc4, the z-score is inactive: -0.206.

GCGGAGCCAUAAUGAAUAATT against Rev3l: the z-score is inactive: 0.838.

With GGUGAAGCACUUUUGUCCCTT against Rhoc, the z-score is inactive: 0.458.

Consider GGAAGUGUUCCGUUUUGCUTT against Aph1a, for which the z-score is inactive: 0.597.

On to CGUACCAUGUAAAUUCUAUTT against Impa1, for which the z-score is inactive: 0.843.

In the case of CCUCCAGUGCUUUUGUAUATT against Olfr1437, the z-score was inactive: -1.17.

For the sequence GCUCUAUAGUGACCAAUGUTT against Gcgr, the z-score was inactive: -0.072.

CGACAGCUACUACGUGGAUTT against Zfp366: the z-score was inactive: 1.05.

For CCUAGGGCUUGUGGUACUATT against Olfr1323, the z-score is inactive: -0.539.

For “GGCACUUCCUCCCUCAACATT against 4833420G17Rik”, the z-score was inactive: -0.57.

For the sequence CCAAGCUUGUAGCUCAAGCTT against Cct8l1, the z-score was inactive: 0.195.

With GGAGCAAGAAAAUGUUCCATT against Akr1b7, the z-score is inactive: 0.0354.

As to CCUCUACUCAGGAAAUAAGTT against Ippk, the z-score was inactive: -0.836.

Regarding GCAAGACCAAAAUUCGAACTT against Mat2b, the z-score was inactive: 0.0853.

On to GCACCAUGAAUUCUAUUGCTT against Kcnmb1, for which the z-score is inactive: -0.24.

As to CGCAUGAUGUGGGUUCUGUTT against Tmem41a, the z-score is inactive: 0.802.

Regarding GGACCAGGUUCACUUCCCUTT against Ovol1, the z-score is inactive: -1.95.

With GGAGGCAUUCGCAUAGACGTT against Tra2a, the z-score is inactive: 1.68.

Consider GCUGAGUUUUGUGGUAGACTT against Olfr1310, for which the z-score is inactive: 0.225.

On to GGCGUACAACAAAAAGCGGTT against Zfp697, for which the z-score is inactive: 0.94.

As to GGCAGACAUUAAAUAUACUTT against Pax1, the z-score was inactive: -0.759.

For the sequence GGACAGUGUUUACAAACUUTT against Fbxw7, the z-score is inactive: -0.664.

Regarding CCCAUAAAGGAUCUGACAGTT against Casp7, the z-score was inactive: 0.164.

For the sequence CCACUGCACUGUAAAUCAATT against Glrx5, the z-score is inactive: -1.41.

Regarding CCUUCCUAGAGUAAUCAAATT against Olfr1289, the z-score is inactive: 1.41.

Turning to CCCGGUUAGCCUUUGAUUGTT against Lamc3, the z-score is inactive: 0.576.

As for GGCUACAAGGUUCGCUAUGTT against Fgfr1, the z-score was inactive: 0.0562.

For the sequence GGAGAAGAGAAUCAACUGCTT against Pou2f3, the z-score is inactive: 0.0442.

Regarding GGACAAGUCCGAGAAGACATT against Glo1, the z-score was inactive: 1.98.

For CCACAUCCCGAGUAUACAUTT against Tssk4, the z-score was inactive: -1.34.

As for GGCCAAGAAGAGAAAAACATT against Ccne2, the z-score is inactive: -1.54.

As for GGAUCAAACACAAUCCUAATT against Vmn1r171, the z-score was inactive: -1.13.

Take GGAAAAUGGGUCAAAUUUGTT against Nudt5: the z-score was inactive: -0.51.

As for GCAAUCCGGCGAUAAGAAUTT against BC031181, the z-score is inactive: -0.127.

Turning to GGCCCAACCUUGGAUCUUUTT against Nudt22, the z-score is inactive: 0.751.

For the sequence GGCUUAGUCAACUUGAAAATT against Dmac2l, the z-score is inactive: 1.3.

Regarding CCGUUGUUCAUAAUUGUGATT against Mvb12b, the z-score was inactive: -0.317.

On to CGAUCAUCGCUCAGUAUAATT against Dlg4, for which the z-score was inactive: -0.252.
